Data set [1] deals with T1, ApOrc1 (Orc1-1) (Aeropyrum pernix) (UniProt Q9YEV6).
T1 sequence (looked up, limits assumed): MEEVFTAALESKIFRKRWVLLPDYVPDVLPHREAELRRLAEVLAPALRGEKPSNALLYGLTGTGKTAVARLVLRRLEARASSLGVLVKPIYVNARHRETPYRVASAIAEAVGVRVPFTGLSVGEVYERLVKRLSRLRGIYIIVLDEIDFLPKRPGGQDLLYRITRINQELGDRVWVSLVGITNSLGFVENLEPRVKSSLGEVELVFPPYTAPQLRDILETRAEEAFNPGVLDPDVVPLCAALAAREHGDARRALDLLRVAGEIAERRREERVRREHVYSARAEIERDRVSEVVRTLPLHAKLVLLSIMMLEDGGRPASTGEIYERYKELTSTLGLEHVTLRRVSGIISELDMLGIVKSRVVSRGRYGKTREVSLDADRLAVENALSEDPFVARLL
The data set can be described thus: EMSA. The note with it: 100-300 nM protein, EMSA: 40 mM HEPES-KOH pH 8, 25 mM [truncated], 5% PAGE in TBE, recombinant protein. (In general: A gel shift assay detects complexes by their altered migration in electrophoresis.)

The target of data set [2] is T1, ApOrc1 (Orc1-1) (Aeropyrum pernix). The data set can be described thus: BLI. The note with it: recombinant protein, single-stranded DNA.
For data set [3] the target is unchanged. In words: SPR. The note with it: SPR: HBS-EP + 10 mM MgCl2, 2 mM ATP, recombinant protein, single-stranded DNA.
For data set [4] the target is unchanged. In words: MST. The note with it: recombinant protein; label: 5' biotin (BLI, SPR), fluorescent (MST); single-stranded DNA.

The exact form of at least one protein or probe is not confirmed. The comparison behind a weaker result is the experiment's own reference, which may not be listed here. For some assays here: At least one verdict was read from the data and is not stated in words by the source. Tags and fusion partners may be left off the protein sequences shown.

For the sequence “AGCTCACAATTCCACACAACATACGAGCCGGAAGCATAAAGTGTAAAGCCTGGGGTGCCTAATGAGTGAGCTAACTCACATTAATTGCGTTGCGCTCACTGCCCGCTTTCCAGTCGGGAAACCTGTCGT (double strand) [pUC18 fragment dsDNA]”, the binding result in data set [1] (fuzzy band only, label: Alexa555-dCTP by TdT) is “binds more weakly”.
CAAATCAAGCTAGAAACAAACAAAGACACA [R1 top]: the binding result in data set [2] (label: 5' biotin) and in data set [3] (label: 5' biotin) was “binds more weakly” throughout.
As to “CAAATCAAGCTAGAAACAAACAAAGACACACTATAATCCAGAACTGCACAGCCTGA [R top]”, the binding result is “binds more weakly” in data set [2] (label: 5' biotin (BLI, SPR), fluorescent (MST)) and “binds more weakly” in data set [4].
As for CTATAATCCAGAACTGCACAGCCTGA [R2 top], the binding result in data set [2] (label: 5' biotin) and in data set [3] (label: 5' biotin) was “binds more weakly” in each case.
On to “GAAGCGTATACTCCTCCCGAATAGTGCTCTTGAAGAATGCCAATATAATGATACAAAAACCCAGTTTTAAA [L top]”, for which the binding result in data set [2] (label: 5' biotin) is recorded as “binds more weakly”.
Take “GCAGCCCTGGTTAAAAACAAGGTTTATAAATATTGGTTTAAAAGCAGGTTAAAAGACAGGTTAGCGGTGG [ssDNA unspecific (RK2 AT-rich region)]”: in data set [3] (response similar to R top, label: 5' biotin), the binding result is “binds more weakly”.
With TCAGGCTGTGCAGTTCTGGATTATAG [R2 bottom], the binding result in data set [2] (label: 5' biotin) and in data set [3] (label: 5' biotin) was “binds more weakly” each time.
As to “TCAGGCTGTGCAGTTCTGGATTATAGTGTGTCTTTGTTTGTTTCTAGCTTGATTTG [R bottom]”, the binding result in data set [3] (no ATP, label: 5' biotin (BLI, SPR), fluorescent (MST)) is “binds more weakly”; in data set [4], “binds”.
“TTTTTTTTTTTTTTTTTTTTTTTTTTTTTTTTTTTTTTTTTTTTTTTTTTTTTTTTTTTTTTTTTTTTTT [polyT(70)]”: the binding result in data set [1] (faint band, label: 5' Cy3, single-stranded DNA) was “binds more weakly”.

(Values after PMC8287685, “Archaeal Orc1 protein interacts with T-rich single-stranded DNA”.)
